At least one compound was matched to its structure with a doubt left.
Experiment: Stability of TPTA in solid mixtures with urea (HPLC)
Type: physicochemical
Settings: 25° C., calculated from Arrhenius plot of 42°, 50°, 60° C. data, zero-order
Protocol: Solid samples (0.25 g) of urea-TPTA mixtures (90 weight percent urea-10 weight precent TPTA) were weighed into a 10-mL beaker, carefully spread into an even layer in the bottom of the beaker, and heated in a forced draft oven at temperatures of 42°, 50°, and 60° C. Samples were contained in desiccators inside the oven, each desiccator conataining a sodium hydroxide solution to yield a partial pressure of water of 12.73 mm Hg at the temperature employed. After heating, the samples were analyzed by High Performance Liquid Chromatography (HPLC) to determine the percent of the original TPTA remaining.
The calculated decomposition rate for 25° C., which was determined from an Arrhenius plot of the 42°, 50°, and 60° C. data are also illustrated in FIG. 2, supra. From a perusal of FIG. 2 it is clearly evident that the shelf life of urea-TPTA mixtures is of extremely short duration.

NP(N)(N)=S [TPTA, thiophosphoryl triamide]
half-life of TPTA in solid urea mixtures: 38 h

— US4676822A, “Fluid fertilizers containing thiophosphoryl triamide” (Tennessee Valley Authority, priority 1986, dated 1987)
